# Reference: PubChem BioAssay AID912 (National Center for Advancing Translational Sciences (NCATS), 2007)
# Most of the hits are listed elsewhere, so they are rarer here than in the full data. Records with an inconclusive call do not appear. Calls of active or inactive are those of the source. The call rests on the fitted dose curve.
# Test: qHTS Assay for Anthrax Lethal Toxin Internalization; further: nearly all actives have a fitted effect of over 50% in size
# Conditions: Cells, FRET ratio (460/530)
# On the % scale 0 is the no-effect control and ±100 the full control effect.
structure (smiles),measurement,setting,value
CN1[C@@H]2CC[C@H]1CC(OC(=O)[C@@H](O)c1ccccc1)C2 (some centres not stated),"activity change, negative = inhibition",at 3.58 µM (top of the series),inactive: -1.8%
same,"activity change, negative = inhibition",at 40 µM (top of the series),inactive: 10.6%
